# Assay results reported in publication PMC7862700.
# Protein sequences, listed by entry. Tags and fused reporters are not part of them. Lines headed by an entry give the natural chain unless they say otherwise; changes in a name come on top.
# UniProt Q9Y603: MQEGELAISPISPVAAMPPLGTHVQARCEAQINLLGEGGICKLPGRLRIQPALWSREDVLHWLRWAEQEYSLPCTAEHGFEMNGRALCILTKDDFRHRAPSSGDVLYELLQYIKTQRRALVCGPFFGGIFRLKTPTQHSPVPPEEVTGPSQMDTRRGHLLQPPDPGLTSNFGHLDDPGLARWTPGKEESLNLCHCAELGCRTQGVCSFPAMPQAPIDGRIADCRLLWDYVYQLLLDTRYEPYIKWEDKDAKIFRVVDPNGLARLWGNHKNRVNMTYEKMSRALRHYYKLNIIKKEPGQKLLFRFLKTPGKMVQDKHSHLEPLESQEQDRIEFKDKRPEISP
# UniProt P41212: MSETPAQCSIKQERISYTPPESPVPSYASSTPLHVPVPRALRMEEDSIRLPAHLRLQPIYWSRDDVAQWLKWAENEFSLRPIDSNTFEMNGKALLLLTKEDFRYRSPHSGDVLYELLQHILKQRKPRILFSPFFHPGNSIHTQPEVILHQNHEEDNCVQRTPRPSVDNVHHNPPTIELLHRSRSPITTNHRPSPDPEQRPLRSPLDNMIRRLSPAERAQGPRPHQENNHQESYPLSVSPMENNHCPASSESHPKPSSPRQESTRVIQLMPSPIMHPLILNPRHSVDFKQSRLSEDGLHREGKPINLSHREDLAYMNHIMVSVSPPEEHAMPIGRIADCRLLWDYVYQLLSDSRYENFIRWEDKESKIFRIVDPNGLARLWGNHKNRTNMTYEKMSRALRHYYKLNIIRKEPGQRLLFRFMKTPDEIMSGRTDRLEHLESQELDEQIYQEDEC
# The list shows a part of the results, in another mix than the full data. At the low end of the ranking, values are background and their order means little.
# Target: T1, ELF3 (UniProt P78545)
# T1 sequence: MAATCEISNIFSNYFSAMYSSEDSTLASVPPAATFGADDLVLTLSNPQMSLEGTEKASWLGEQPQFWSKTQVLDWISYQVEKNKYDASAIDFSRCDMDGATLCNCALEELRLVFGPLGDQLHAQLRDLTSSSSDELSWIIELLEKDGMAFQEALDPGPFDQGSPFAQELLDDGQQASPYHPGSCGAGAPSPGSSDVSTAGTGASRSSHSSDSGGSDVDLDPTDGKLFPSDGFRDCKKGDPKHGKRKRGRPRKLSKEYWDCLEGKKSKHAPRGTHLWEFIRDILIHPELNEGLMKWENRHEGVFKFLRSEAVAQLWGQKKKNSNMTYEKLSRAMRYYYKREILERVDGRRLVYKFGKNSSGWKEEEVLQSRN
# Experiment: DAPPL (digital affinity profiling via proximity ligation, sequencing)
# Conditions: 10 mM Tris-HCl pH 7.5, 50 mM NaCl, 1 mM DTT, 4% glycerol, room temperature, 30 min; GST-TFs on glutathione beads, 16-mer random dsDNA library, 0.1% …; high values mean tight binding; double strand, one strand shown; scale: fold enrichment (6-mer frequency, TF over GST control)
row,Sequence,binding signal
1,ACGGTC,0.679
2,AAGAGT,0.769
3,AGTCAG,0.475
4,GCGAGT,0.505
5,TCGTAG,0.836
6,GGGTGG,0.776
7,TAGACC,0.84
8,TAGAGG,0.822
9,TCGGCA,0.685
10,GACCAG,0.668
11,GATCGC,0.775
12,AGCCCG,0.816
13,GAGAAG,0.631
14,GGGCCG,0.52
15,TAGGGA,0.828
16,TAGTCG,0.518
17,AGCTGG,0.997
18,GAGTCG,0.205
19,ACAGAG,0.765

row,Sequence,binding signal
1,GGGTGT,0.863
2,TTGGAC,0.86
3,GTCGTC,0.831
4,GGTAGG,0.713
5,GAGTAA,0.505
6,AGCCAT,0.961
7,ACAGCG,0.816
8,CGCAGC,0.766
9,GGGAAG,0.906
10,GCGCTA,0.807
11,GTACCG,0.934
12,AGGGGT,0.846
13,CAGGCG,0.254
14,TGTGTA,0.906
15,GCTGAG,0.58
16,GAGGGG,0.504
17,CGGTAC,0.882
18,GGTCAT,0.828
19,GACGCC,0.829

# Target: ETV7 (UniProt Q9Y603)
# Experiment: as above
# Conditions: 10 mM Tris-HCl pH 7.5, 50 mM NaCl, 1 mM DTT, 4% glycerol, room temperature, 30 min; GST-TFs on glutathione beads, 16-mer random dsDNA library, 0.1% …; high values mean tight binding; double strand, one strand shown; scale: fold enrichment (6-mer frequency, TF over GST control)
row,Sequence,binding signal
1,ACGGTC,0.876
2,AAGAGT,0.944
3,AGTCAG,0.536
4,GCGAGT,0.714
5,TCGTAG,0.965
6,GGGTGG,0.803
7,TAGACC,0.778
8,TAGAGG,0.846
9,TCGGCA,0.747
10,GACCAG,0.587
11,GATCGC,0.855
12,AGCCCG,0.884
13,GAGAAG,0.821
14,GGGCCG,0.617
15,TAGGGA,0.88
16,TAGTCG,0.556
17,AGCTGG,0.915
18,GAGTCG,0.247
19,ACAGAG,0.859

row,Sequence,binding signal
1,GGGTGT,0.811
2,TTGGAC,0.947
3,GTCGTC,0.764
4,GGTAGG,0.794
5,GAGTAA,0.61
6,AGCCAT,0.883
7,ACAGCG,0.798
8,CGCAGC,0.843
9,GGGAAG,0.952
10,GCGCTA,0.963
11,GTACCG,0.748
12,AGGGGT,0.921
13,CAGGCG,0.377
14,TGTGTA,0.887
15,GCTGAG,0.711
16,GAGGGG,0.614
17,CGGTAC,0.866
18,GGTCAT,0.887
19,GACGCC,0.898

# Target: ETV6 (UniProt P41212)
# Experiment: as above
# Conditions: 10 mM Tris-HCl pH 7.5, 50 mM NaCl, 1 mM DTT, 4% glycerol, room temperature, 30 min; GST-TFs on glutathione beads, 16-mer random dsDNA library, 0.1% …; high values mean tight binding; double strand, one strand shown; scale: fold enrichment (6-mer frequency, TF over GST control)
row,Sequence,binding signal
1,ACGGTC,0.731
2,AAGAGT,0.955
3,AGTCAG,0.523
4,GCGAGT,0.57
5,TCGTAG,0.791
6,GGGTGG,0.812
7,TAGACC,0.808
8,TAGAGG,0.823
9,TCGGCA,0.747
10,GACCAG,0.597
11,GATCGC,0.849
12,AGCCCG,0.855
13,GAGAAG,0.692
14,GGGCCG,0.646
15,TAGGGA,0.771
16,TAGTCG,0.441
17,AGCTGG,0.896
18,GAGTCG,0.216

row,Sequence,binding signal
1,ACAGAG,0.715
2,GGGTGT,0.772
3,TTGGAC,0.92
4,GTCGTC,0.825
5,GGTAGG,0.688
6,GAGTAA,0.55
7,AGCCAT,0.858
8,ACAGCG,0.779
9,CGCAGC,0.752
10,GTACCG,0.718
11,AGGGGT,0.817
12,CAGGCG,0.282
13,TGTGTA,0.802
14,GCTGAG,0.675
15,GAGGGG,0.488
16,CGGTAC,0.907
17,GGTCAT,0.827
18,GACGCC,0.842
